This is an account of results in patent publication US20200362350.

Amino acid sequences for entries named in this document (tags omitted). A change or cut given only in a name is not applied to a line headed by its entry.
UniProt Q8K3Y3: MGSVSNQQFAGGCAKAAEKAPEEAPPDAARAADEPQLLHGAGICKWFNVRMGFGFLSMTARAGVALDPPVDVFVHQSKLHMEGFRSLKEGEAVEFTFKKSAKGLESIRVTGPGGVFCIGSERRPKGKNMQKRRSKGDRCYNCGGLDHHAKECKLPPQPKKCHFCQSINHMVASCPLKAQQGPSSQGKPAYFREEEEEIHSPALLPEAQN

For at least one entry, the source does not settle the construct or the ends of the probe.

The target of data set [1] is Lin28a (16-184) with 9-residue linker deletion 9-residue internal deletion in linker (Mus musculus) (UniProt Q8K3Y3). As to the kind of experiment: EMSA. The following applies: deletion of up to 9 linker residues supports binding; purified recombinant protein; protein details: His6 removed by TEV; label: 32P. For orientation: In EMSA bound probe runs differently from free probe, usually more slowly.

Data set [2] has as its target Lin28a (35-187) with 9-residue linker deletion 9-residue internal deletion in linker (Mus musculus) (UniProt Q8K3Y3). The data set can be described thus: EMSA. To be noted: fragment of pre-let-7f-1; linker deletion tolerated; purified recombinant protein; protein details: His6 removed by TEV; label: 32P.

In the case of “UUAGGGCAGAGAUUUUGCCCACAAGGAGUU [preE-let-7d full]”, in data set [1], the binding result is recorded as “binds”. Consider “GUGGGGUAGUGAUUUUACCCUGUUUAGGAGAU [preE-let-7f-1 (fragment)]”, for which the binding result in data set [2] is recorded as “binds”.
